Data on two substances can be found in paper PMC5339724.

In the assay the target is T1, FLAG-tagged podocin (UniProt Q9NP85).
T1 sequence: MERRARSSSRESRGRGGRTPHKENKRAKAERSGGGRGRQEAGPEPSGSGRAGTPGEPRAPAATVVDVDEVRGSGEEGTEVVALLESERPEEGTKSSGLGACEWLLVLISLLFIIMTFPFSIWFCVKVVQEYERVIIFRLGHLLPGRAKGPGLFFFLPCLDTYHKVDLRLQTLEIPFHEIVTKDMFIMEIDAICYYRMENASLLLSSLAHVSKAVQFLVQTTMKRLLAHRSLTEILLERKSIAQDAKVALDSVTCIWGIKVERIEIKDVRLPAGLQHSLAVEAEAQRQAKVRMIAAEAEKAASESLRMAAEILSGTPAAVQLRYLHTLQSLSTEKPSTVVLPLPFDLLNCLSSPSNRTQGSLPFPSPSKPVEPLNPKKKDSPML
Briefly: co-IP; HEK293T cells co-transfected with FLAG-podocin and GFP-SNX9 constructs; lysate in 50 mM Tris pH 7.5, 150 mM NaCl, 1.0% Triton X100; anti-FLAG-M2 agarose overnight at 4 °C; blot with anti-GFP and anti-FLAG.

Results are given in words; binding and its absence hold for the method and conditions named. Binding seen in cells or lysates may run through a third protein. Where a sequence is shown, tags or fusion partners need not be part of it.

Consider GFP-SNX9-ΔBAR (domain or fragment), for which the binding entry was “no binding”.

Regarding GFP-SNX9-ΔPXBAR (domain or fragment), the binding entry is reported as “no binding”.
